Data published in doi:10.1101/054106.

By UniProt entry, the sequences of proteins in these tests, tags left out. Where a name states a change or a piece, a line headed by the entry shows the natural chain unless it says otherwise.
UniProt P23509: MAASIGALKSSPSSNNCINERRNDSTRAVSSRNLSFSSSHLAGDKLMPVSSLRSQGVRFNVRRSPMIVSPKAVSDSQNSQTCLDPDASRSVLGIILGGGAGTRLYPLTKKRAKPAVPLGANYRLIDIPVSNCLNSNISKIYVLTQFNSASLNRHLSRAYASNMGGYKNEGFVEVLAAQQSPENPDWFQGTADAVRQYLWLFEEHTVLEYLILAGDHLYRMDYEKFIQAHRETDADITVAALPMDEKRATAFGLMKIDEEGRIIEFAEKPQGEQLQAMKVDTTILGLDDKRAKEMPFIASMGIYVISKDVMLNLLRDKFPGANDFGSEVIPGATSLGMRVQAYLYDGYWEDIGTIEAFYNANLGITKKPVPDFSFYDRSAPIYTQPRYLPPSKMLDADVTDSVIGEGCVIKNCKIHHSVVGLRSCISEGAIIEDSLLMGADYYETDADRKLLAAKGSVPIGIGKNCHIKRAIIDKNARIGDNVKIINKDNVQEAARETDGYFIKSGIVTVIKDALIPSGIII

Biological target: potato ADP-glucose pyrophosphorylase (AGPase) small subunit, wild type (potato (S. tuberosum)) (UniProt P23509)
Test: native gel or EMSA

binding: binds
B1: potato ADP-glucose pyrophosphorylase (AGPase) large subunit, wild type (enzyme, UniProt Q00081 1-470)
chain: NKIKPGVAYSVITTENDTQTVFVDMPRLERRRANPKDVAAVILGGGEGTKLFPLTSRTATPAVPVGGCYRLIDIPMSNCINSAINKIFVLTQYNSAPLNRHIARTYFGNGVSFGDGFVEVLAATQTPGEAGKKWFQGTADAVRKFIWVFEDAKNKNIENIVVLSGDHLYRMDYMELVQNHIDRNADITLSCAPAEDSRASDFGLVKIDSRGRVVQFAEKPKGFDLKAMQVDTTLVGLSPQDAKKSPYIASMGVYVFKTDVLLKLLKWSYPTSNDFGSEIIPAAIDDYNVQAYIFKDYWEDIGTIKSFYNASLALTQEFPEFQFYDPKTPFYTSPRFLPPTKIDNCKIKDAIISHGCFLRDCSVEHSIVGERSRLDCGVELKDTFMMGADYYQTESEIASLLAEGKVPIGIGENTKIRKCIIDKNAKIGKNVSIINKDGVQEADRPEEGFYIRSGIIIILEKATIRDGTVI

These are yes or no findings as the source states them, for the method shown. Binding can be weak; no strength is given. Where a sequence is shown, tags or fusion partners need not be part of it.
